# Measurements taken from PubChem BioAssay AID504444 (National Center for Advancing Translational Sciences (NCATS), 2011).
# About 7,500 (2.1%) of roughly 360,000 compounds were called active. This list was built around the results that the source calls inconclusive (neither active nor inactive); the mix of calls is not that of the screen. Calls come from the whole dose curve; as a rule, active = well fitted inhibition curve with a large enough effect; inconclusive = small, poorly fitted or top-dose-only effect, or effect the other way; inactive = flat fitted curve, though single readings scatter. Potencies of inconclusive entries are doubtful fits and often do not repeat.
# Experiment: Nrf2 qHTS screen for inhibitors; note: nearly all actives have a fitted effect of over 60% in size
# Conditions: A549 ARE-Fluc reporter, luciferase luminescence, 18-24 h; series mostly up to 46 µM
# In short: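 Nrf2 function is reported as luminescence of an ARE-controlled luciferase in A549 cells. Compounds were tested at several concentrations, and a CellTiter-Fluor read on the same wells flagged cytotoxicity.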
# Potency is the fitted concentration of half-maximal effect.
row,Compound,Potency
1,O=C(CCl)N1CCCC1c1ccc2c(c1)OCCO2 (stereo not drawn),"inconclusive: 20.6 µM [falling, single point]"
2,Cc1nc(-c2ccc(Cl)cc2)sc1C1(C)CC(c2cccc(Cl)c2)=NO1 (stereo not drawn),"inconclusive: 20.6 µM [activator, partial curve]"
3,COc1ccccc1C(=O)Nc1ccnn1C1CCN(C(=O)c2ccoc2C)CC1,inactive
4,Cc1cccc(NC(=O)c2sc3nc(-c4ccc(F)cc4)cn3c2C)n1,"inconclusive: 10.3 µM [falling, partial curve]"
5,CCN(CC(=O)Nc1ccc2c(c1)OCCO2)Cc1cc(=O)oc2c(C)c(C)ccc12,inactive
6,CCn1nc(C)c(CN2CCC(C(=O)Nc3cccc(-c4cccc(Cl)c4)c3)CC2)c1C,"inconclusive: 6.51 µM [activator, single point]"
7,COc1cc(/C=C2\CCC/C(=C\c3ccc(O)c(OC)c3)C2=O)ccc1O,"inconclusive: 11.6 µM [activator, partial curve]"
8,Cn1nc(C(C)(C)C)cc1C(=O)NNC(=O)c1ccc(C(F)(F)F)cc1,active: 20.6 µM
9,O=C(CSc1ncccc1-c1nc2ccccc2[nH]1)N1CCc2ccccc21,"inconclusive: 9.2 µM [activator, partial curve]"
10,N#CC(C#N)=C(Nc1ccc(F)cc1)SCc1cccc(F)c1,active: 4.61 µM
11,COCCNC(=O)c1ccc(-n2c(-c3ccccc3)cc3c2CCCCC3)cc1,"inconclusive: 25.9 µM [falling, single point]"
12,CNC(=O)CSc1nnc(-c2cccs2)o1,"inconclusive: 5.17 µM [falling, single point]"
13,COCCCNc1nc2ccccc2nc1NS(=O)(=O)c1ccc(C)cc1C,"inconclusive: 29.1 µM [falling, partial curve, poor fit]"
14,O=C(NCc1ccccc1Cl)NCc1ccccc1Cl,"inconclusive: 11.6 µM [activator, partial curve, poor fit]"
15,O=C(CSCC(=O)N1CCCCC1)Nc1nc(-c2ccccc2)c(-c2ccccc2)s1,"inconclusive: 29.1 µM [falling, single point]"
16,Cc1ccc(/C=N/NC(=O)c2nnn(-c3nonc3N)c2CSc2ccccc2)o1,"inconclusive: 32.6 µM [falling, partial curve, poor fit]"
17,CC(C)(C)OC(=O)N1C2C=CC1C1=COCCN1C2=O (stereo not drawn),inactive
18,Cn1cc([N+](=O)[O-])c(C(=O)Nc2ccn(C34CC5CC(CC(C5)C3)C4)n2)n1,inactive
19,Cc1ccc(C)c(-n2c(-c3csc(C)c3C)n[nH]c2=S)c1,inactive
20,Cc1ccc(N(Cc2cc3ccccc3[nH]c2=O)C(=O)c2ccco2)c(C)c1,"inconclusive: 5.8 µM [falling, full curve]"
21,CCc1nc(SCc2ccc(Cl)cc2)n[nH]1,"inconclusive: 8.2 µM [activator, partial curve]"
22,COc1ccccc1N(C(=O)c1snc(C(N)=O)c1N)C(C(=O)NC1CCCCC1)c1cccc(OC)c1OC (stereo not drawn),"inconclusive: 29.1 µM [falling, single point]"
23,CC1(C)COC(/C=C/c2ccc([N+](=O)[O-])cc2)=N1,"inconclusive: 6.51 µM [activator, partial curve, poor fit]"

row,Compound,Potency
1,CCOC(=O)c1ccccc1NC(=O)CN1C(=O)CC(c2ccco2)Sc2ccccc21 (stereo not drawn),"inconclusive: 29.1 µM [falling, single point]"
2,CCOC(=O)Cn1c(CN(Cc2ccccc2)Cc2ccccc2)nc2c1c(=O)n(C)c(=O)n2C,"inconclusive: 10.3 µM [falling, partial curve]"
3,CC(=O)Nc1ccc(NC(=O)C(C)Oc2ccccc2C(=O)NCc2ccccc2)cc1 (stereo not drawn),"inconclusive: 6.51 µM [falling, partial curve, poor fit]"
4,CCOC(=O)NCc1ccc2c(c1)cc(C)n2C,"inconclusive: 7.31 µM [falling, partial curve]"
5,O=C(CCNS(=O)(=O)c1cccs1)N1CCN(c2cccc(Cl)c2)CC1,"inconclusive: 29.1 µM [falling, single point]"
6,COc1ccc(S(=O)(=O)N2CCCC(C(=O)NCC3CCCO3)C2)cc1Cl (stereo not drawn),"inconclusive: 0.184 µM [falling, full curve, poor fit]"
7,Cc1ccc(NC(=O)CCCCCN2C(=O)[C@@H]3Cc4ccccc4CN3C2=O)c(Cl)c1,active: 23.1 µM
8,CCc1cccc(OCC(=O)Nc2cc(S(=O)(=O)N3CCOCC3)ccc2N2CCCC2)c1,"inconclusive: 14.6 µM [falling, partial curve, poor fit]"
9,O=c1c(Cl)c(Cl)cnn1Cc1ccccc1Cl,inactive
10,COc1cc([N+](=O)[O-])ccc1NC(=O)Nc1cccnc1,"inconclusive: 20.6 µM [falling, partial curve, poor fit]"
11,CN(C)N=Nc1nc2c(c(=O)n(C)c(=O)n2C)n1CC1CO1 (stereo not drawn),"inconclusive: 29.1 µM [activator, single point]"
12,N/C(=N\OC(=O)c1ccc(Cl)cc1)c1nonc1N,"inconclusive: 29.1 µM [activator, single point]"
13,COc1ccccc1-c1nc(C#N)c(NCc2ccc(F)cc2)o1,"inconclusive: 0.58 µM [activator, full curve, poor fit]"
14,Cc1cccc(N2CCN(C(=O)CCC(=O)N3Cc4ccccc4Oc4ncccc43)CC2)c1C,"inconclusive: 23.1 µM [falling, single point]"
15,COc1ccc(CCNC(=O)c2cc(Nc3cc(C)cc(C)c3)nc3ccccc23)cc1OC,"inconclusive: 29.1 µM [falling, single point]"
16,COc1ccc(C(=O)N2CCc3c([nH]c4ccccc34)C2C(F)(F)F)cc1 (stereo not drawn),"inconclusive: 23.1 µM [falling, single point]"
17,CC(=O)Nc1cccc(NC(=O)CSc2cn(CC(=O)N(C(C)C)C(C)C)c3ccccc23)c1,inactive
18,Cn1c(CSc2nc3ccccc3s2)nc2ccccc21,"inconclusive: 6.51 µM [activator, partial curve, poor fit]"
19,CCCCCCC(=O)N(O)C1CC(=O)N(c2ccc(Br)cc2)C1=O (stereo not drawn),"inconclusive: 25.9 µM [activator, single point]"
20,O=C(NCc1ccccn1)c1cc(S(=O)(=O)N2CCN(c3ccccc3)CC2)ccc1Cl,"inconclusive: 32.6 µM [falling, partial curve, poor fit]"
21,Cc1oc(-c2ccc(Cl)cc2)nc1Cn1c(=O)cc(C)c2c(C)nn(-c3cccc(F)c3)c21,"inconclusive: 29.1 µM [activator, single point]"
22,N#CC1=C(N)Oc2cc(Nc3ccccc3)ccc2C1c1ccncc1 (stereo not drawn),"inconclusive: 29.1 µM [falling, partial curve, poor fit]"
23,O=C(c1cc(-c2ccccn2)nc2c(Cl)cccc12)N1CCN(S(=O)(=O)c2ccccc2)CC1,inactive

# 4 of these compounds, set out differently.
row | Compound | Potency
2 | CCOC(=O)Cn1c(CN(Cc2ccccc2)Cc2ccccc2)nc2c1c(=O)n(C)c(=O)n2C | inconclusive: 10.3 µM [falling, partial curve]
3 | CC(=O)Nc1ccc(NC(=O)C(C)Oc2ccccc2C(=O)NCc2ccccc2)cc1 (stereo not drawn) | inconclusive: 6.51 µM [falling, partial curve, poor fit]
4 | CCOC(=O)NCc1ccc2c(c1)cc(C)n2C | inconclusive: 7.31 µM [falling, partial curve]
5 | O=C(CCNS(=O)(=O)c1cccs1)N1CCN(c2cccc(Cl)c2)CC1 | inconclusive: 29.1 µM [falling, single point]

# Following part:

row,Compound,Potency
1,Cc1cc(C(=O)Nc2ccccc2)oc1C,"inconclusive: 18.4 µM [activator, partial curve]"
2,CCOC(=O)c1ccc(NC(=O)CSc2nc(=O)n(CCN3CCOCC3)c3c2CCC3)cc1,active: 18.4 µM
3,COc1ccc(/C=N/NC(=O)c2cc[n+]([O-])cc2)cc1O,"inconclusive: 1.46 µM [falling, partial curve]"
4,COc1ccc(S(=O)(=O)N2CCCCCC2)cc1C(=O)NCCOc1ccc(C)cc1,"inconclusive: 3.66 µM [falling, partial curve, poor fit]"
5,Cc1ccc(-c2ccnc(-c3ccc(O)cc3)n2)cc1,"inconclusive: 16.4 µM [activator, partial curve]"
6,COc1ccc(NC(=O)C(=O)NCCC2CCCCN2S(=O)(=O)c2ccc(F)cc2)cc1 (stereo not drawn),inactive
7,O=C(CCN1C(=O)C2CCCCC2C1=O)Nc1ccc(F)c(F)c1F (stereo not drawn),inactive
8,COc1cc2c(cc1OC)CN(c1ccc3ccccc3n1)CC2,inactive
9,O=C(NCc1ccncc1)C1CCN(S(=O)(=O)c2cccc(C(F)(F)F)c2)CC1,inactive
10,COc1ccc(N2CCN(c3c4c(nc5nncn35)CCC4)CC2)cc1,active: 20.6 µM
11,Cc1ccc(N/N=C(\C#N)C(=O)c2ccsc2)cc1,"inconclusive: 25.9 µM [falling, single point]"
12,O=C(/C=C/Nc1ccc(F)c(F)c1)c1cccs1,"inconclusive: 16.4 µM [activator, partial curve]"
13,CC(C)(C)NC(=O)c1ccc2nccnc2c1,inactive
14,Cc1cccc(C)c1NC(=O)CNc1ncnc2sc(C)c(C)c12,"inconclusive: 20.6 µM [falling, partial curve, poor fit]"
15,O=C(COC(=O)C12CC3CC(CC(C3)C1)C2)NCC1CCCO1 (stereo not drawn),inactive
16,Cc1cc(OCC(=O)OCC(=O)N(C)C2CCS(=O)(=O)C2)ccc1Cl (stereo not drawn),inactive
17,CCN(CC)C(=O)Cn1cc(SCC(=O)Nc2ccccc2F)c2ccccc21,inactive
18,CCc1ccc(-c2nc(CSCC(=O)NC3CC3)c(C)o2)cc1,"inconclusive: 18.4 µM [falling, partial curve]"
19,COc1ccc(S(=O)(=O)N(C)C[C@@H]2Oc3ccc(NC(=O)Nc4c(C)noc4C)cc3C(=O)N([C@H](C)CO)C[C@@H]2C)cc1,inactive
20,Cc1ccc(NC(=O)c2cnc3ccccc3n2)cc1C,"inconclusive: 10.3 µM [activator, partial curve]"
21,O=C(Cn1cnc2sc(-c3ccccc3)cc2c1=O)NCCc1ccccc1,"inconclusive: 13 µM [falling, partial curve, poor fit]"
22,COc1ccc(CNC(=O)Nc2cccc3ccccc23)cc1,inactive
